Results are given in words; binding and its absence hold for the method and conditions named. Binding seen in cells or lysates may run through a third protein. Binding calls can cover weak binding; strength is not graded here. Sequences can lack the tags named with a protein.
What was measured:
Assay in all cases: co-IP; FLAG-tagged bait and HA-tagged partner co-expressed in HEK293T cells; lysed in RIPA buffer 30 min on ice; anti-FLAG M2 magnetic beads at 4°C overnight; washed 3 times with RIPA buffer; analysed by WB
[1] = target: Membralin deletion mutant 1–322 with a FLAG-tag
[2] = target: Membralin deletion mutant ΔTM3 with a FLAG-tag
[3] = target: Membralin deletion mutant 70–628 with a FLAG-tag
[4] = target: Membralin deletion mutant 1–345 with a FLAG-tag
[5] = target: Membralin mutant 1–466 (entire cytoplasmic tail deleted) with a FLAG-tag
[6] = target: Membralin deletion mutant ΔTM4 with a FLAG-tag
[7] = target: Membralin deletion mutant ΔTM2 with a FLAG-tag

Measured: binding

B1: Mannosyl-oligosaccharide 1,2-α-mannosidase (MAN1B1) with a C-terminal HA-tag (enzyme, UniProt Q9UKM7 1-699)
chain: MAACEGRRSGALGSSQSDFLTPPVGGAPWAVATTVVMYPPPPPPPHRDFISVTLSFGENYDNSKSWRRRSCWRKWKQLSRLQRNMILFLLAFLLFCGLLFYINLADHWKALAFRLEEEQKMRPEIAGLKPANPPVLPAPQKADTDPENLPEISSQKTQRHIQRGPPHLQIRPPSQDLKDGTQEEATKRQEAPVDPRPEGDPQRTVISWRGAVIEPEQGTELPSRRAEVPTKPPLPPARTQGTPVHLNYRQKGVIDVFLHAWKGYRKFAWGHDELKPVSRSFSEWFGLGLTLIDALDTMWILGLRKEFEEARKWVSKKLHFEKDVDVNLFESTIRILGGLLSAYHLSGDSLFLRKAEDFGNRLMPAFRTPSKIPYSDVNIGTGVAHPPRWTSDSTVAEVTSIQLEFRELSRLTGDKKFQEAVEKVTQHIHGLSGKKDGLVPMFINTHSGLFTHLGVFTLGARADSYYEYLLKQWIQGGKQETQLLEDYVEAIEGVRTHLLRHSEPSKLTFVGELAHGRFSAKMDHLVCFLPGTLALGVYHGLPASHMELAQELMETCYQMNRQMETGLSPEIVHFNLYPQPGRRDVEVKPADRHNLLRPETVESLFYLYRVTGDRKYQDWGWEILQSFSRFTRVPSGGYSSINNVQDPQKPEPRDKMESFFLGETLKYLFLLFSDDPNLLSLDAYVFNTEAHPLPIWTPA
binds: all assays above
